Values from PubChem BioAssay AID504786 (Drosophila RNAi Screening Center, 2011).

Purpose: 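Positive regulators of HIF-driven reporter output in Drosophila cells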 (primary screen)
Cells: Drosophila S2 cells with a stable HIF luciferase reporter
Knock-down reagent: long dsRNA against Drosophila genes, about 0.2 µg dsRNA per well of a 384-well plate
Timing: three days of knock-down, then 20 h of DFO before reading
Conditions: desferrioxamine (DFO) at 100 µM, an iron chelator that mimics hypoxia, for 20 h
Measured: 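HIF reporter luminescence in cells given 100 µM DFO for 20 h, using the mouse ldh-a hypoxia-response element, scored as per-plate z-scores; higher means greater loss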
Reading the numbers: z-score: higher = stronger loss of HIF reporter signal
In all, the deposit lists about 21,000 reagents; this is an unselected part of those that have a named target and a result. 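Primary screen; positive scores mean lost reporter signal, so the sign may be inverted from the usual convention.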 Names joined by + are all predicted targets of the reagent.

predicted target | dsRNA | z-score, replicate 1 | z-score, replicate 2
CG4730 | DRSC15633 | -0.3 | 0.6
Gas41 | DRSC03156 | -0.3 | 0.7
Pih1D1 (PIH1 domain containing 1) | DRSC02897 | -0.4 | -0.6
geko | DRSC10044 | -0.4 | -0.1
geko | DRSC10045 | -0.3 | -0.8
CSN1a (COP9 signalosome subunit 1a) | DRSC01951 | -0.4 | -0.5
Spps (Sp1-like factor for pairing sensitive-silencing) | DRSC15856 | -0.3 | -1
CG8993 | DRSC08616 | -0.1 | -0.2
CG31041 | DRSC13951 | -0.1 | -0.2
Tpst (Tyrosylprotein sulfotransferase) | DRSC18989 | -0.3 | -0.1
Tpst (Tyrosylprotein sulfotransferase) | DRSC19696 | -0.2 | -0.3
Tpst (Tyrosylprotein sulfotransferase) | DRSC19723 | -0.5 | -1.1
Tpst (Tyrosylprotein sulfotransferase) | DRSC19724 | 0.4 | 0.5
Pop2 | DRSC10537 | -0.4 | -1.4
lncRNA:CR42646 (long non-coding RNA:CR42646) | DRSC04759 | -0.4 | -0.3
eIF2Bgamma (eukaryotic translation initiation factor 2B subunit gamma) | DRSC07100 | -0.3 | -1.2
ric8b + ric8a | DRSC18104 | -0.4 | -0.9
CG15745 (retired record) | DRSC19711 | -0.1 | 0
SecCl (Secretory chloride channel) | DRSC10887 | 0 | -0.3
CG7488 | DRSC16250 | 0.1 | 0
Gpo3 (Glycerophosphate oxidase 3) | DRSC01978 | -0.3 | -0.3
CG7069 | DRSC16188 | -0.2 | -0.3
CG13282 | DRSC02254 | -0.2 | -0.1
CG14817 | DRSC18547 | 0.9 | 0.7
Gk1 (Glycerol kinase 1) | DRSC08533 | -0.3 | -0.4
Gk1 (Glycerol kinase 1) | DRSC08534 | -0.3 | 0
Usp39 (Ubiquitin specific protease 39) | DRSC20032 | 0.3 | 1.1
CG5646 | DRSC15853 | -0.4 | -0.4
RpS15Ab + RpS15Aa | DRSC06129 | 6.8 | 3.3
RpS15Ab + RpS15Aa | DRSC19831 | 8.7 | 4.2
CG33285 | DRSC11463 | -0.3 | -1.1
CG10254 | DRSC14153 | 0 | -0.1
siz (schizo) | DRSC11622 | -0.2 | -0.1
siz (schizo) | DRSC11689 | -0.1 | -0.2
siz (schizo) | DRSC11690 | -0.1 | 0

5 entries from above, ordered by “z-score, replicate 2”, ascending:
predicted target | dsRNA | z-score, replicate 1 | z-score, replicate 2
geko | DRSC10045 | -0.3 | -0.8
Pih1D1 (PIH1 domain containing 1) | DRSC02897 | -0.4 | -0.6
geko | DRSC10044 | -0.4 | -0.1
CG4730 | DRSC15633 | -0.3 | 0.6
Gas41 | DRSC03156 | -0.3 | 0.7
